Laboratory results taken from paper PMC9249237.
Results are given in words; binding and its absence hold for the method and conditions named. Binding seen in cells or lysates may run through a third protein. Some results given as binding are weak or reduced against the parent protein; the word gives no strength. For part of these data: Sequences can lack the tags named with a protein.

Protein sequences, listed by entry. Tags and fused reporters are not part of them.
UniProt O42145: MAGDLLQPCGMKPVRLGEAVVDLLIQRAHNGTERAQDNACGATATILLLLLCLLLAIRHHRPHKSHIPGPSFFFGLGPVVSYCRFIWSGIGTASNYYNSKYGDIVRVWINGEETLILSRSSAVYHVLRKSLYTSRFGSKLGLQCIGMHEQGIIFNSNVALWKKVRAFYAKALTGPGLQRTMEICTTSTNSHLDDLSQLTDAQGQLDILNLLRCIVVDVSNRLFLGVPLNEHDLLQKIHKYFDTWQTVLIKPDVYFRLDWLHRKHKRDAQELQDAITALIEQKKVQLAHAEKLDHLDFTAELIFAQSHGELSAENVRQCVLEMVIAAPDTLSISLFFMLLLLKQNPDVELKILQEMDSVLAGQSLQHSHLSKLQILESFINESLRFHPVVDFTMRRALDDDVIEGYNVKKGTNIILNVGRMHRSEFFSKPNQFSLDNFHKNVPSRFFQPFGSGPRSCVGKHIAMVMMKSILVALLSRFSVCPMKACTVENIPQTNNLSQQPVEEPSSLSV

Legend:
Experiment in all cases: co-IP; EPC cells co-transfected with tagged plasmids for 24 h; RIPA lysis buffer (1% NP-40, 50 mM Tris-HCl pH 7.5, 150 mM NaCl, 1 mM EDTA, 0.25% sodium deoxycholate); anti-Flag/HA/Myc affinity gel overnight at 4°C; three washes with lysis buffer; immunoblot; in Fig 7I cells first transfected with si-atg14#1 or si-NC; in Fig 7E MITA co-expressed
[1] = molecular target: T1, wild-type MITA (construct of the anti-HA co-IP of Fig 4K) (zebrafish) (UniProt E7F4N7)
T1 sequence: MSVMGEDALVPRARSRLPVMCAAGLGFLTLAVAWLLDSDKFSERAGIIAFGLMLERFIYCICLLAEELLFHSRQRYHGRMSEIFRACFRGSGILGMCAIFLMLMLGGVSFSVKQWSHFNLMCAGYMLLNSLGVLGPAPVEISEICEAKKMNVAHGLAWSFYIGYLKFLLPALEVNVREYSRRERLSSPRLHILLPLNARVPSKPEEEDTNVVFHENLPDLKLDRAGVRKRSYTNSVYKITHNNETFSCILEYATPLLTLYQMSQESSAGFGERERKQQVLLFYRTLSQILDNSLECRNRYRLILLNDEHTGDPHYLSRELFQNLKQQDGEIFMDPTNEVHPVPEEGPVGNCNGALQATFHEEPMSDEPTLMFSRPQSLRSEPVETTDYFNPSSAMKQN

[2] = molecular target: T2, MITA-C (MITA truncation lacking the N-terminal/ER localization region, containing the C-terminal 222 amino acids) (zebrafish) (UniProt E7F4N7)
T2 sequence: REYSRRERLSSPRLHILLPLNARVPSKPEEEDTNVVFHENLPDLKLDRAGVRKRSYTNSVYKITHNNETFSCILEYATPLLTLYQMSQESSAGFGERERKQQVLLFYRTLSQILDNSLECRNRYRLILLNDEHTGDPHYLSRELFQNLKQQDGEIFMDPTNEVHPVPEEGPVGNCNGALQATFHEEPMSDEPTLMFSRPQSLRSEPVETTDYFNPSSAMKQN

[3] = molecular target: T3, MITA-Myc (zebrafish mediator of IRF3 activation) (zebrafish) (UniProt E7F4N7)
T3 sequence: T1 sequence

Row | Substance | binding [1] | binding [2] | binding [3]
1 | Cyp19a1a (construct of the anti-HA co-IP of Fig 4K) (from UniProt O42145 1-509) | binds | no binding | –
2 | Cyp19a1a-Flag (zebrafish cytochrome P450, family 19, subfamily A, polypeptide 1a) (from UniProt O42145 1-509) | – | – | binds
